Format in all cases: nucleic-acid assay
Common to all, as to conditions: MRE600

Assay [1] relates to Nucleic Acid. The assay is described as follows: Binding affinity to Escherichia coli 23S rRNA assessed as increase in classical-state occupancy by tRNA at 20 uM by smFRET.
The subject of assay [2] is Nucleic Acid. The assay is described as follows: Binding affinity to Escherichia coli 23S rRNA G2553C mutant assessed as increase in classical-state occupancy by tRNA at 20 uM by smFRET.
Assay [3] deals with Nucleic Acid. The assay is described as follows: Binding affinity to Escherichia coli 16S rRNA helix 44 assessed as classical-state occupancy by tRNA. Also noted: concentration or dose not given beside the values.
Assay [4] deals with Nucleic Acid. As to the kind of experiment: Binding affinity to Escherichia coli 16S rRNA helix 44 assessed as tRNA translocation rate.

`CNC1C(O)C(OC2C(N)CC(N)C(OC3OC(CN)CCC3N)C2O)OCC1(C)O` (centres undefined): the Activity stood at 5% in assay [1], 18% in assay [2], 67.2% in assay [3] and 0.42 s⁻¹ in assay [4].

Source of the values: ChEMBL document CHEMBL1250449, “Aminoglycoside activity observed on single pre-translocation ribosome complexes” (Nat Chem Biol, 2010).
